Test results reported in publication PMC7249644.

The chains behind the UniProt entries cited, without tags or fusion partners.
UniProt P22954: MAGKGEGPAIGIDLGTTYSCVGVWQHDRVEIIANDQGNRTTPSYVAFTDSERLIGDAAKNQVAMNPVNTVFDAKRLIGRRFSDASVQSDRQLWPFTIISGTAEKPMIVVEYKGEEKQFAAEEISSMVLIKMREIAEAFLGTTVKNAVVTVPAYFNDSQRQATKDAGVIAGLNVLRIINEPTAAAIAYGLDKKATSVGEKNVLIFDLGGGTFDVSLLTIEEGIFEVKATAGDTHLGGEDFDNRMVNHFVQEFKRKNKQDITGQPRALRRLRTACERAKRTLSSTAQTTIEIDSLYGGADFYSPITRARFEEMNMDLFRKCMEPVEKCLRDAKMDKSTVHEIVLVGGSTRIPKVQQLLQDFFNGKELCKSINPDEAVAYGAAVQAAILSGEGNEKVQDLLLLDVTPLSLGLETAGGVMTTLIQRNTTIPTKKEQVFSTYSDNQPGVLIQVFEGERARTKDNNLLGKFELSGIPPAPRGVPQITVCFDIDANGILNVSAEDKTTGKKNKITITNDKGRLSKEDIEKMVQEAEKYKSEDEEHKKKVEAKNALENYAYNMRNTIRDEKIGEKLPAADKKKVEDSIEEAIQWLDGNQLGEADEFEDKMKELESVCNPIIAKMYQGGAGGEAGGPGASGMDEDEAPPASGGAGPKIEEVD
UniProt P56757: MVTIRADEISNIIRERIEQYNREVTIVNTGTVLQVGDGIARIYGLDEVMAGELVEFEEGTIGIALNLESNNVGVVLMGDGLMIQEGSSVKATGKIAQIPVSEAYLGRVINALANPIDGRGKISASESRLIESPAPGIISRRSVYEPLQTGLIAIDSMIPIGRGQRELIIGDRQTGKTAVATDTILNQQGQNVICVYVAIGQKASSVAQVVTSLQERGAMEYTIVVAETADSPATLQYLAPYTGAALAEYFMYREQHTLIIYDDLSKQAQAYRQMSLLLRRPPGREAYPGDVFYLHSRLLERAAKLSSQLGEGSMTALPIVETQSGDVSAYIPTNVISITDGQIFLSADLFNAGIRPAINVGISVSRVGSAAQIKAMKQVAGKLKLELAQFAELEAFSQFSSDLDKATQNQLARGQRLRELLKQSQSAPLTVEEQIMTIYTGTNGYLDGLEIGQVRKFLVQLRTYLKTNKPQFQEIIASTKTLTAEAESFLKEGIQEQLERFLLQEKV
UniProt P19366: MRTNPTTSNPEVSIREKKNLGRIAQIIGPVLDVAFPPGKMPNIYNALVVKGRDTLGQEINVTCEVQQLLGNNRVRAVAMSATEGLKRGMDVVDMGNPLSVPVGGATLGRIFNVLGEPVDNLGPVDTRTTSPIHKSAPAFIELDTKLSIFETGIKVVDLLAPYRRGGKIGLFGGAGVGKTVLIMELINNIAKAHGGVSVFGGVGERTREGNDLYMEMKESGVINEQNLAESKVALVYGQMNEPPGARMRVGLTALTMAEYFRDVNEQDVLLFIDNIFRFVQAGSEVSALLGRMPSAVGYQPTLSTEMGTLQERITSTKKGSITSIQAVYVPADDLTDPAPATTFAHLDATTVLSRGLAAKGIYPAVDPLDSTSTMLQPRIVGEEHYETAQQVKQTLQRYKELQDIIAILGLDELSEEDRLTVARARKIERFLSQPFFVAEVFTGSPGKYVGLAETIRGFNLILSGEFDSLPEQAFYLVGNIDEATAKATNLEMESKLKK

T1: OsSHMT (serine hydroxymethyltransferase, LOC_Os03g52840) fused with GFP (rice (Oryza sativa)) (UniProt Q10D68)
T1 sequence: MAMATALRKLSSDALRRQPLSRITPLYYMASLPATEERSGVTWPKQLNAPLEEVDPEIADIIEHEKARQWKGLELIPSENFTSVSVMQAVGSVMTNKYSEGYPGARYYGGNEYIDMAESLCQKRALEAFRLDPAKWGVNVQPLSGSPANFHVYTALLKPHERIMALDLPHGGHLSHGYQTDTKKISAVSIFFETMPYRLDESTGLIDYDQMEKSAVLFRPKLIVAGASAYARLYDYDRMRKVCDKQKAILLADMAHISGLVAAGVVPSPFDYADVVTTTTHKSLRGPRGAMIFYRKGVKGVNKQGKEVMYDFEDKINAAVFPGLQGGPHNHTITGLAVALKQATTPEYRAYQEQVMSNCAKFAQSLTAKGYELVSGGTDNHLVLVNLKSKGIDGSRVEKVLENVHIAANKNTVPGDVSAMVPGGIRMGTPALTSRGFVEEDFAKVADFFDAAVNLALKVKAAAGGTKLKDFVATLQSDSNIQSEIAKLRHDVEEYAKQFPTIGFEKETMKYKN


Each molecule was assayed against T1, OsSHMT (serine hydroxymethyltransferase, LOC_Os03g52840) fused with GFP (rice (Oryza sativa)) (assay: affinity purification with mass spectrometry; GFP-Trap agarose (Chromotek) incubated with natural leaf proteins of T3 homozygous OsSHMT-GFP transgenic A. thaliana; GFP-only transgenic line as control; co-precipitated proteins identified by LC-MS).

| binding | Molecule |
| --- | --- |
| binds | Heat shock protein 70 (Hsp 70) family protein (AT5G02490.1), A. thaliana (from UniProt P22954 1-653) |
| binds | ascorbate peroxidase 1 (AT1G07890.2), A. thaliana (enzyme, UniProt Q05431 1-250) MTKNYPTVSEDYKKAVEKCRRKLRGLIAEKNCAPIMVRLAWHSAGTFDCQSRTGGPFGTMRFDAEQAHGANSGIHIALRLLDPIREQFPTISFADFHQLAGVVAVEVTGGPDIPFHPGREDKPQPPPEGRLPDATKGCDHLRDVFAKQMGLSDKDIVALSGAHTLGRCHKDRSGFEGAWTSNPLIFDNSYFKELLSGEKEGLLQLVSDKALLDDPVFRPLVEKYAADEDAFFADYAEAHMKLSELGFADA |

The next lines start with the molecule.

| Molecule | binding |
| --- | --- |
| ATP synthase subunit alpha (ATCG00120.1), A. thaliana (from UniProt P56757 1-507) | binds |
| ATP synthase subunit beta (ATCG00480.1), A. thaliana (from UniProt P19366 1-498) | binds |
| Mitochondrial substrate carrier family protein (AT5G46800.1), A. thaliana (protein, UniProt Q93XM7 1-300) MADAWKDLASGTVGGAAQLVVGHPFDTIKVKLQSQPTPAPGQLPRYTGAIDAVKQTVASEGTKGLYKGMGAPLATVAAFNAVLFTVRGQMEGLLRSEAGVPLTISQQFVAGAGAGFAVSFLACPTELIKCRLQAQGALAGASTTSSVVAAVKYGGPMDVARHVLRSEGGARGLFKGLFPTFAREVPGNATMFAAYEAFKRFLAGGSDTSSLGQGSLIMAGGVAGASFWGIVYPTDVVKSVLQVDDYKNPRYTGSMDAFRKILKSEGVKGLYKGFGPAMARSVPANAACFLAYEMTRSSLG | binds |

Results are given in words; binding and its absence hold for the method and conditions named. In cells and extracts the contact can be indirect. Here binding means that the protein was enriched with, or labelled near, the bait; the list need not be complete. Tags and fused reporters may be left off the sequences shown.
